# Assay results reported in PubChem BioAssay AID1671190 (National Center for Advancing Translational Sciences (NCATS), 2021).
# Chains of the proteins cited; added tags and fusions are not shown. Lines headed by an entry give the natural chain unless they say otherwise; changes in a name come on top.
# UniProt P18054: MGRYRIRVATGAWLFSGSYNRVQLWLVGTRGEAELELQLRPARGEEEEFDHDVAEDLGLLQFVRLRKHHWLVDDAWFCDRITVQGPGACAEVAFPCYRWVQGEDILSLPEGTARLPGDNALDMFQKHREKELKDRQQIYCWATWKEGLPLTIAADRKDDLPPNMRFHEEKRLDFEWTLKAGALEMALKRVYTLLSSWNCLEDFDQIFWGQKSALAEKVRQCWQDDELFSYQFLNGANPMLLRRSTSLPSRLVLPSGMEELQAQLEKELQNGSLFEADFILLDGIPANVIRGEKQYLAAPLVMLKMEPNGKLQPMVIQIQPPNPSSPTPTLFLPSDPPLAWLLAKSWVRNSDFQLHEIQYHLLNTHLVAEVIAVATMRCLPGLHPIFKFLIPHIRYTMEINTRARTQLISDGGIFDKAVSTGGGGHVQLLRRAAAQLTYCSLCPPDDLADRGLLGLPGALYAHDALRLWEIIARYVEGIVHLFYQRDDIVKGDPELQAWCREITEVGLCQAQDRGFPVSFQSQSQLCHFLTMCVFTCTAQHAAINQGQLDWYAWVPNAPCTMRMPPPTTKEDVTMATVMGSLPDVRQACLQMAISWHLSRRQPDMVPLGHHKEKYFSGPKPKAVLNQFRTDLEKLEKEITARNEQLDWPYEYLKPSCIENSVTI
# Values joined by “and” are separate entries in the source; they are usually repeats but may differ in a detail not shown here. Equal entries are not always repeated. The campaign covered roughly 580,000 compounds. About 6,100 (1.1%) were called active. Inconclusive results, whose numbers are uncertain, are shown with a selection of clear calls. Calls follow the shape of the dose curve; as a rule, active = well fitted inhibition curve with a large enough effect; inconclusive = small, poorly fitted or top-dose-only effect, or another doubt; inactive = no such curve, though single readings can be large or run the other way. Potencies beside an inconclusive call are fits to weak or partial responses and may not hold up.
# Target: Polyunsaturated fatty acid lipoxygenase ALOX12 (Homo sapiens) (UniProt P18054)
# Test: Primary qHTS assay for inhibitors of human arachidonate 12S-lipoxygenase (ALOX12): Round 2
# Conditions: purified 12hLO, xylenol orange hydroperoxide absorbance; activity change, negative = inhibition: at 108 µM (top of the series)
# Method in brief: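 Purified human 12hLO (150 nM final) in 25 mM Hepes, 0.01% Triton X-100, pH 7.0 was preincubated 15 min at room temperature with compound. Then 40 uM arachidonic acid was added, 30 min. Hydroperoxide was read by Fe-XO absorbance ratio 573/405 nm.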
# % is scaled to controls: 0 for no effect and ±100 for the full control effect; potency is read from the fitted curve at half-maximal effect.
SMILES,Potency,"activity change, negative = inhibition"
CCN(CC)C(=O)c1ccc(NC(=O)CNC(C)c2cccc3ccccc23)cc1 (stereo unspecified),"inconclusive: 112 µM [inhibitor, single point]",–
COc1ccc(CCn2c(O)c(C=NCCN3CCCCC3)c(=O)[nH]c2=O)cc1OC,–,inactive: -7.17%
C[N+](C)(C)c1ccccc1,"inconclusive: 50.1 µM [inhibitor, partial curve, poor fit]",–
C=C(C)CC1(CC)C(=O)NC(=S)NC1=O,"inconclusive: 79.4 µM [inhibitor, single point]",–
O=C1CS(=O)(=O)C2(CCNCC2)N1c1ccccc1,"inconclusive: 11.2 µM [inhibitor, partial curve]",–
C[C@@H]1CNCCN1c1ccc(N2CC[C@@H](O)C2)c(C#N)c1,"inconclusive: 56.2 µM [inhibitor, partial curve, poor fit]",–
CN(C(=O)CN1CC=C(c2ccccc2)CC1)C1CCS(=O)(=O)C1 (stereo unspecified),"inconclusive: 35.5 µM [inhibitor, partial curve, poor fit]",–
c1ccc2c(CCNC3CCCCC3)c[nH]c2c1,"inconclusive: 3.55 µM [inhibitor, full curve, poor fit]",–
COc1ccc(C(c2nnnn2C(C)(C)C)N2CCC3(CC2)C(=O)NCN3c2ccccc2)cc1 (stereo unspecified),"inconclusive: 56.2 µM [inhibitor, partial curve, poor fit]",–
COc1ccc(CN2CCC3(CC(c4cccnc4)=NO3)C2)cc1 (stereo unspecified),–,inactive: 8.96% [at 6.33 µM]
COc1c(C)cc(C(=O)C2CCCN(Cc3cnc(C)s3)C2)cc1C (stereo unspecified),"inconclusive: 44.7 µM [inhibitor, partial curve, poor fit]",–
COc1ccc(C(=O)N2CCOCC2)cc1S(=O)(=O)N1CCC(C)CC1,–,inactive: -3.81%
COc1ccc(CN2CCCC(C(=O)c3ccc(Cl)cc3)C2)c(O)c1 (stereo unspecified),"inconclusive: 100 µM [inhibitor, partial curve, poor fit]",–
Clc1ccc2c(c1)C(c1ccccc1Cl)=NCc1nnc(N3CCN(CCOc4ccccc4)CC3)n1-2,–,inactive: -27.9%
Cn1cc(NC(=O)CCl)cn1,–,inactive: -5.21%
C=C1C([C@@H](O)C[C@H](C)C2O[C@@]3(CCCCO3)CC[C@H]2C)OC2CC[C@@]3(CC[C@@H](/C=C/[C@@H](C)C4CC(C)=C[C@]5(O4)O[C@H](C[C@@](C)(O)C(=O)O)CCC5O)O3)OC2[C@@H]1O (stereo partly specified),–,inactive: -10.9% [at 6.33 µM]
CN1CC2(Cc3c1ccc1ccccc31)C(=O)NC(=O)N(C(C)(C)C)C2=O (stereo unspecified),"inconclusive: 8.91 µM [inhibitor, full curve, poor fit]",–
Cc1ccc2[nH]cc(CCN)c2c1,"inconclusive: 50.1 µM [inhibitor, single point]",–
O=C(O)c1ccc([N+](=O)[O-])c([N+](=O)[O-])c1,"inconclusive: 44.7 µM [inhibitor, partial curve, poor fit]",–
Oc1ccc2c3c1O[C@H]1c4[nH]c5c(c4C[C@@]4(O)[C@@H](C2)N(CC2CC2)CC[C@]314)C[C@]1(O)[C@H]2Cc3ccc(O)c4c3[C@@]1(CCN2CC1CC1)[C@@H]5O4,"inconclusive: 20 µM [inhibitor, partial curve, poor fit]",–
COC(=O)C1=C(c2ccc(F)cc2OCc2ccccc2)C[C@@H]2CC[C@H]1N2C(=O)NCc1ccc([N+](=O)[O-])cc1,"inconclusive: 3.16 µM [inhibitor, full curve, poor fit]",–

SMILES,Potency,"activity change, negative = inhibition"
CCOc1cc(-c2nc3c(C)cccn3c2NCC2CCCO2)ccc1O (stereo unspecified),"inconclusive: 28.2 µM [inhibitor, partial curve]",–
C[C@]12CC[C@H](O)CC1=CC[C@H]1[C@H]3CCC(=O)[C@@]3(C)CC[C@@H]12,–,inactive: 0.103% [at 57.4 µM]
CCN1CCCC1CNC(=O)C(O)(c1ccccc1)c1ccccc1 (stereo unspecified),–,inactive: 0.93% [at 22.9 µM]
CC(=O)O[C@H]1CCC2C3CC[C@H]4[C@@H](O)[C@H](O)CC[C@]4(C)C3CC[C@@]21C (stereo partly specified),"inconclusive: 100 µM [inhibitor, single point]",–
CCN(CC)P(=O)(NC(=O)C(Cl)(Cl)Cl)N(CC)CC.[Cl-].[Cl-].[Cl-].[Nd+3],"inconclusive: 56.2 µM [inhibitor, partial curve, poor fit] and inconclusive: 100 µM [inhibitor, partial curve, poor fit]",–
O=C1CSC2N1CCNC21CCCCC1 (stereo unspecified),"inconclusive: 35.5 µM [inhibitor, single point]",–
COc1ccc(S(=O)(=O)N2C[C@@H]3C[C@H](C2)c2c(-c4ccccc4F)ccc(=O)n2C3)cc1,"inconclusive: 0.891 µM [inhibitor, full curve, poor fit]",–
O=C(Nc1ccccc1)c1c(O)[nH]c(=S)[nH]c1=O,"inconclusive: 50.1 µM [inhibitor, partial curve, poor fit]",–
Clc1ccc(COC(Cn2ccnc2)c2ccc(Cl)cc2Cl)c(Cl)c1 (stereo unspecified),"inconclusive: 89.1 µM [inhibitor, partial curve, poor fit] and inconclusive: 50.1 µM [inhibitor, partial curve, poor fit]",–
CCN(CC)c1ccc(CN2CC=C(c3ccc(F)cc3)CC2)cc1,"inconclusive: 35.5 µM [inhibitor, partial curve, poor fit]",–
COc1ccc([N+](=O)[O-])cc1,"inconclusive: 50.1 µM [inhibitor, partial curve, poor fit]",–
C#C[C@H]1CN2CC[C@H]1C[C@@H]2COC(=O)Nc1ccc(OC(F)(F)F)cc1,–,inactive: 45.2% [at 176 µM]
O=C(O)c1ccc(N=Cc2c(O)[nH]c(=O)[nH]c2=O)cc1,"inconclusive: 5.01 µM [inhibitor, full curve, poor fit]",–
Cc1ccc(Cn2nnnc2CN2CCC(n3nnc4ccccc43)CC2)cc1,"inconclusive: 35.5 µM [inhibitor, partial curve, poor fit]",–
CC1=CC2OC3CC4OC(=O)C=CC=CC(=O)OCCC(C)C(O)C(=O)OCC2(CC1O)C4(C)C31CO1 (stereo unspecified),–,inactive: 5.44%
C=Cc1ccc(Cn2c(C)c(CNCCc3cc(OC)ccc3OC)c(C(=O)O)c2C)cc1,"inconclusive: 89.1 µM [inhibitor, partial curve, poor fit]",–
CN(C)Cc1cn(C[C@H]2C[C@@H]3CCN2C[C@@H]3C(=O)NCc2ccc(F)cc2)nn1,–,inactive: 31.6% [at 176 µM]
O=C1NCCCCCCN[C@H]2CCC[C@@H]12,–,inactive: 21.1%
CN(C)c1ccc([P+](=O)c2ccc(N(C)C)cc2)cc1,–,inactive: -10.8%
O=C1NC(=O)C(=Cc2coc3ccc(O)cc3c2=O)C(=O)N1,"inconclusive: 56.2 µM [inhibitor, partial curve, poor fit]",–
COc1ccc(CC2=NCCc3cc(OC)c(OC)cc32)cc1OC,"inconclusive: 0.891 µM [inhibitor, full curve]",–

SMILES,Potency,"activity change, negative = inhibition"
c1ccc2sc(SNC3CCCCC3)nc2c1,active: 28.2 µM,–
COc1cccc(CC(=O)N2[C@H]3CC[C@@H]2c2cnc(-c4ccccc4)nc2C3)c1,–,inactive: 35.6%
CCCOc1ccc(C(C)=O)cc1Cc1c(O)[nH]c(=S)[nH]c1=O,"inconclusive: 28.2 µM [inhibitor, partial curve, poor fit]",–
COc1cccc(CN2CCCC(C(=O)c3ccccc3SC)C2)c1O (stereo unspecified),"inconclusive: 112 µM [inhibitor, single point]",–
CC[N+](C)(CC)CCCCOc1ccc2c(c1)C(=O)c1cc(OCCCC[N+](C)(CC)CC)ccc1-2,"inconclusive: 35.5 µM [inhibitor, partial curve, poor fit]",–
CCC(=NCCc1ccccc1)c1c(O)n(C2CCCCC2)c(=O)[nH]c1=O,"inconclusive: 100 µM [inhibitor, single point]",–
Cn1cc(Br)c(C(=O)Nc2ccc3c(C(F)(F)F)cc(=O)oc3c2)n1,"inconclusive: 50.1 µM [inhibitor, partial curve, poor fit]",–
O=C(Nc1ccccc1OC(=O)N1CCOCC1)N1CCOCC1,–,inactive: -20.7%
CCCCn1c(O)c(C(C)=Nc2ccc(C(=O)O)cc2)c(=O)[nH]c1=O,"inconclusive: 28.2 µM [inhibitor, single point]",–
COc1ccc(CN2CCN(C(=O)COc3cccc(C)c3)CC2)c(OC)c1,"inconclusive: 0.447 µM [inhibitor, full curve, poor fit]",–
O=C(NC1(C(F)(F)F)Oc2ccccc2O1)N1CCC2(CC1)OCCO2,"inconclusive: 5.01 µM [inhibitor, full curve]",–
Cc1cccc(NC(=O)N2[C@H]3CC[C@@H]2c2cnc(C)nc2C3)c1,–,inactive: 10.6%
C[n+]1ccc(-c2cc[n+](C)cc2)cc1,"inactive and inconclusive: 50.1 µM [inhibitor, partial curve, poor fit]",–
COc1cc(C(c2c(C)[nH]n(-c3ccccc3)c2=O)c2c(C)[nH]n(-c3ccccc3)c2=O)cc(OC)c1OC,"inconclusive: 8.91 µM [inhibitor, full curve]",–
Cn1nc(C(=O)N[C@@H]2COCC[C@@H]2OCc2cscn2)c2ccccc21,–,inactive: 19.1%
Cc1cccc(NC(=O)N2[C@H]3CC[C@@H]2c2cncnc2C3)c1,–,inactive: 34.1%
O=C(C(=C1N(Cc2ccc(Cl)nc2)CCN1Cc1ccc(Cl)nc1)[N+](=O)[O-])C(Cl)Cl,–,inactive: 12.7%
C[C@H]1OC[C@@H](C[N+](C)(C)C)O1,"inconclusive: 50.1 µM [inhibitor, partial curve, poor fit]",–
COc1ccc(OC)c(S(=O)(=O)NC[C@H]2C[C@@H]3CCN2C[C@@H]3c2cc(-c3ccc(F)cc3)nn2C)c1,–,inactive: 49.8%

# Given tab-delimited: entries from further up.
SMILES	Potency	activity change, negative = inhibition
CCCCn1c(O)c(C(C)=Nc2ccc(C(=O)O)cc2)c(=O)[nH]c1=O	inconclusive: 28.2 µM [inhibitor, single point]	–
COc1ccc(CN2CCN(C(=O)COc3cccc(C)c3)CC2)c(OC)c1	inconclusive: 0.447 µM [inhibitor, full curve, poor fit]	–
O=C(NC1(C(F)(F)F)Oc2ccccc2O1)N1CCC2(CC1)OCCO2	inconclusive: 5.01 µM [inhibitor, full curve]	–
